Read-outs that look alike come from different tables or passages of the source. No constants are given. Whether binding was seen depends on the method and setting. Some entries that bind do so weakly or less than the wild type. Where a sequence is shown, tags or fusion partners need not be part of it.
Columns and labels:
Test in all cases: single-molecule fluorescence motility assay
[1] = target: Cin8-GFP-6His (tetrameric kinesin-5 Cin8 of Saccharomyces cerevisiae) (S. cerevisiae) (UniProt P27895)
[2] = target: Cin8-GFP-6His (tetrameric kinesin-5 Cin8 of Saccharomyces cerevisiae) (S. cerevisiae) (UniProt P27895); remark: listed apart in the source
[3] = target: Cin8-GFP-6His (tetrameric kinesin-5 Cin8 of Saccharomyces cerevisiae) (S. cerevisiae) (UniProt P27895); remark: listed apart in the source

binding [1]: binds weakly
binding [2]: binds weakly
binding [3]: binds weakly
B1: Cin8-GFP-6His (tetrameric kinesin-5 Cin8 of Saccharomyces cerevisiae) (protein, UniProt P27895 1-1000)
chain: MPAENQNTGQDRSSNSISKNGNSQVGCHTVPNEELNITVAVRCRGRNEREISMKSSVVVNVPDITGSKEISINTTGDTGITAQMNAKRYTVDKVFGPGASQDLIFDEVAGPLFQDFIKGYNCTVLVYGMTSTGKTYTMTGDEKLYNGELSDAAGIIPRVLLKLFDTLELQQNDYVVKCSFIELYNEELKDLLDSNSNGSSNTGFDGQFMKKLRIFDSSTANNTTSNSASSSRSNSRNSSPRSLNDLTPKAALLRKRLRTKSLPNTIKQQYQQQQAVNSRNNSSSNSGSTTNNASSNTNTNNGQRSSMAPNDQTNGIYIQNLQEFHITNAMEGLNLLQKGLKHRQVASTKMNDFSSRSHTIFTITLYKKHQDELFRISKMNLVDLAGSENINRSGALNQRAKEAGSINQSLLTLGRVINALVDKSGHIPFRESKLTRLLQDSLGGNTKTALIATISPAKVTSEETCSTLEYASKAKNIKNKPQLGSFIMKDILVKNITMELAKIKSDLLSTKSKEGIYMSQDHYKNLNSDLESYKNEVQECKREIESLTSKNALLVKDKLKSKETIQSQNCQIESLKTTIDHLRAQLDKQHKTEIEISDFNNKLQKLTEVMQMALHDYKKRELDLNQKFEMHITKEIKKLKSTLFLQLNTMQQESILQETNIQPNLDMIKNEVLTLMRTMQEKAELMYKDCVKKILNESPKFFNVVIEKIDIIRVDFQKFYKNIAENLSDISEENNNMKQYLKNHFFKNNHQELLNRHVDSTYENIEKRTNEFVENFKKVLNDHLDENKKLIMQNLTTATSAVIDQEMDLFEPKRVKWENSFDLINDCDSMNNEFYNSMAATLSQIKSTVDTSSNSMNESISVMKGQVEESENAISLLKNNTKFNDQFEQLINKHNMLKDNIKNSITSTHSHITNVDDIYNTIENIMKNYGNKENATKDEMIENILKEIPNLSKKMPLRLSNINSNSVQSVISPKKHAIEDENKSSENVDNEGSRKMLKIE
